Laboratory results reported in article PMC3948350.
Results are given in words; binding and its absence hold for the method and conditions named. Binding seen in cells or lysates may run through a third protein. A yes stands for co-enrichment or nearness to the bait. Other partners may have been found.

Sequences of proteins named here, by UniProt entry; tags and fusion partners are left off. Residues count along the entry.
UniProt P10719, residues 47-529: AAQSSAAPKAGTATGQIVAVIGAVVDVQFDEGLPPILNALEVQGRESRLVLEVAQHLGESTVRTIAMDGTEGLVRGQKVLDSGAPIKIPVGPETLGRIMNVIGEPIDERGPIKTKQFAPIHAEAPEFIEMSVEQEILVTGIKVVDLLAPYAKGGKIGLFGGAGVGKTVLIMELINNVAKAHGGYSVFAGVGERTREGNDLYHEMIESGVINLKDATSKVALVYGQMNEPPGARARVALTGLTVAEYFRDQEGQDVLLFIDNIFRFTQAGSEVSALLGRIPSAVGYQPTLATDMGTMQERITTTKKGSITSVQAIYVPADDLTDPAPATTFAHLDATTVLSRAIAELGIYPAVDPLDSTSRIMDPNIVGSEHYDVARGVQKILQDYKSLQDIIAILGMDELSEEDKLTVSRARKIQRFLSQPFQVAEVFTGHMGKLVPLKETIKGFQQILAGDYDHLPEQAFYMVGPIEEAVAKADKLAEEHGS
UniProt P48500: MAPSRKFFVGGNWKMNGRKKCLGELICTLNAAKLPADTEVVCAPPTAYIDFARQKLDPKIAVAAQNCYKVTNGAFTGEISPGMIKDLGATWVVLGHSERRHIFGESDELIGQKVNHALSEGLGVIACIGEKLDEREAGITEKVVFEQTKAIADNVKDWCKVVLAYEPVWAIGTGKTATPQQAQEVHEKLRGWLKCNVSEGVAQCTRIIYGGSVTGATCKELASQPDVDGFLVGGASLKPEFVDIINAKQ
UniProt P04797: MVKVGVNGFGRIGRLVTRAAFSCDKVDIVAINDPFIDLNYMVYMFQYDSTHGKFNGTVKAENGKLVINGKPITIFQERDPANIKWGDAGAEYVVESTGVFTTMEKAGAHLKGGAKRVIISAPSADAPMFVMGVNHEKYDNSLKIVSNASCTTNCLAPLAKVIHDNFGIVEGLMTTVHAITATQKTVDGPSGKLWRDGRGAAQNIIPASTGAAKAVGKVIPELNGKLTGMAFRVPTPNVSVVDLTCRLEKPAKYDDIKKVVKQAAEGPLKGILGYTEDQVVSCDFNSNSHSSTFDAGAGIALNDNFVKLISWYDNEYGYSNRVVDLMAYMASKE

T1: Caveolin-1 (rat (endogenous in abdominal WAT and BAT)) (UniProt P41350)
T1 sequence: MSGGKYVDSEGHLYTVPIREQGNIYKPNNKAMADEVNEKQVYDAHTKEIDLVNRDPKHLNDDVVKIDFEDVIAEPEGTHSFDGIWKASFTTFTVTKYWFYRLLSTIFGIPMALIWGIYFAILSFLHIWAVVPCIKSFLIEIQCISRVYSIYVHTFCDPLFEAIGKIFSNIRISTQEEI


What was measured:
[1] = target: T1, Caveolin-1 (rat (endogenous in abdominal WAT and BAT)); assay: affinity purification with mass spectrometry; co-IP of endogenous CAV1 with anti-CAV1 antibody (Cell Signaling; Thermo Scientific CO-IP kit) from rat BAT lysate (control, E2-treated and DHT-treated rats); SDS-PAGE, silver staining, bands identified by MALDI-TOF peptide mass fingerprinting (MASCOT); control rabbit IgG sample
[2] = target: T1, Caveolin-1 (rat (endogenous in abdominal WAT and BAT)); assay: affinity purification with mass spectrometry; co-IP of endogenous CAV1 with anti-CAV1 antibody (Cell Signaling; Thermo Scientific CO-IP kit) from rat abdominal WAT lysate (control, E2-treated and DHT-treated rats); SDS-PAGE, silver staining, bands identified by MALDI-TOF peptide mass fingerprinting (MASCOT); control rabbit IgG sample

| Molecule | binding [1] | binding [2] |
| --- | --- | --- |
| ATP synthase (H+ transporting, mitochondrial F1 complex, beta polypeptide) (from UniProt P10719 47-529) | binds | – |
| triose phosphate isomerase 1 (from UniProt P48500 1-249) | binds | – |
| N-acetylmuramoyl-L-alanine amidase (rat (endogenous in abdominal WAT)) | – | binds |
| glyceroldehyde-3-phosphate dehydrogenase (from UniProt P04797 1-333) | binds | – |
| carbonic anhydrase 3 (protein, UniProt P14141 1-260) MAKEWGYASHNGPEHWHELYPIAKGDNQSPIELHTKDIRHDPSLQPWSVSYDPGSAKTILNNGKTCRVVFDDTFDRSMLRGGPLSGPYRLRQFHLHWGSSDDHGSEHTVDGVKYAAELHLVHWNPKYNTFGEALKQPDGIAVVGIFLKIGREKGEFQILLDALDKIKTKGKEAPFNHFDPSCLFPACRDYWTYHGSFTTPPCEECIVWLLLKEPMTVSSDQMAKLRSLFASAENEPPVPLVGNWRPPQPIKGRVVRASFK | – | binds |
| aconitate hydratase, mitochondrial precursor (protein, UniProt Q9ER34 28-780) QRAKVAMSHFEPSEYIRYDLLEKNINIVRKRLNRPLTLSEKIVYGHLDDPANQEIERGKTYLRLRPDRVAMQDATAQMAMLQFISSGLPKVAVPSTIHCDHLIEAQLGGEKDLRRAKDINQEVYNFLATAGAKYGVGFWRPGSGIIHQIILENYAYPGVLLIGTDSHTPNGGGLGGICIGVGGADAVDVMAGIPWELKCPKVIGVKLTGTLSGWTSPKDVILKVAGILTVKGGTGAIVEYHGPGVDSISCTGMATICNMGAEIGATTSVFPYNHRMKKYLSKTGRADIANLAEEFKDHLVPDPGCQYDQVIEINLNELKPHINGPFTPDLAHPVADVGTVAEKEGWPLDIRVGLIGSCTNSSYEDMGRSAAVAKQALAHGLKCKSQFTITPGSEQIRATIERDGYAQILRDVGGIVLANACGPCIGQWDRKDIKKGEKNTIVTSYNRNFTGRNDANPETHAFVTSPEIVTALAIAGTLKFNPETDFLTGKDGKKFKLEAPDADELPRSDFDPGQDTYQHPPKDSSGQRVDVSPTSQRLQLLEPFDKWDGKDLEDLQILIKVKGKCTTDHISAAGPWLKFRGHLDNISNNLLIGAINIENGKANSVRNAVTQEFGPVPDTARYYKKHGIRWVVIGDENYGEGSSREHAALEPRHLGGRAIITKSFARIHETNLKKQGLLPLTFADPSDYNKIHPVDKLTIQGLKDFAPGKPLNCIIKHPNGTQETILLNHTFNETQIEWFRAGSALNRMKELQQ | binds | – |
| acetyl-CoA acyltransferase 2, mitochondrial (protein, UniProt P13437 1-397) MALLRGVFIVAAKRTPFGAYGGLLKDFTATDLTEFAARAALSAGKVPPETIDSVIVGNVMQSSSDAAYLARHVGLRVGVPTETGALTLNRLCGSGFQSIVSGCQEICSKDAEVVLCGGTESMSQSPYSVRNVRFGTKFGLDLKLEDTLWAGLTDQHVKLPMGMTAENLAAKYNISREDCDRYALQSQQRWKAANEAGYFNEEMAPIEVKTKKGKQTMQVDEHARPQTTLEQLQNLPPVFKKEGTVTAGNASGMSDGAGVVIIASEDAVKKHNFTPLARVVGYFVSGCDPAIMGIGPVPAITGALKKAGLSLKDMDLIDVNEAFAPQFLAVQKSLDLDPSKTNVSGGAIALGHPLGGSGSRITAHLVHELRRRGGKYAVGSACIGGGQGISLIIQNTA | binds | – |
| electron transfer flavoprotein, subunit beta (protein, UniProt Q68FU3 1-255) MAELRALVAVKRVIDFAVKIRVKPDKSGVVTDGVKHSMNPFCEIAVEEAVRLKEKKLVKEIIAVSCGPPQCQETIRTALAMGADRGIHVEVPGAEAENLGPLQVARVLAKLAEKEKVDLLFLGKQAIDDDCNQTGQMTAGLLDWPQGTFASQVTLEGDKVKVEREIDGGLETIRLKLPAVVTADLRLNEPRYATLPNIMKAKKKKIEVIKAGDLGVDLTSKVSVISVEEPPQRLAGVKVETTEDLVAKLKEVGRI | binds | – |
